Compound in the assay: Nc1ncnc2c1ncn2[C@@H]1O[C@H](COP(=O)(O)OP(=O)(O)OP(=O)(O)O)[C@@H](O)[C@H]1O [adenosine triphosphate]
The experiment in a line: NP40-soluble protein abundance relative to vehicle (solubility fold change) (ratio); higher = more soluble protein in presence of ATP. The procedure, abridged:
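Each value is a fold change relative to the detergent-processed vehicle, calculated per replicate from vsn-normalised intensities. Jurkat crude lysate received eight concentrations (0.1 to 10 mM) for 10 min at room temperature and 3 min at 37 °C, then was solubilised in 0.8% NP40 with benzonase (60 min, 4 °C). The ultracentrifuged supernatant was TMT-labelled and run by LC-MS/MS in three independent experiments.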

By UniProt entry, the sequences of proteins in these tests, tags left out. Where a name states a change or a piece, a line headed by the entry shows the natural chain unless it says otherwise.
UniProt Q3ZCW2: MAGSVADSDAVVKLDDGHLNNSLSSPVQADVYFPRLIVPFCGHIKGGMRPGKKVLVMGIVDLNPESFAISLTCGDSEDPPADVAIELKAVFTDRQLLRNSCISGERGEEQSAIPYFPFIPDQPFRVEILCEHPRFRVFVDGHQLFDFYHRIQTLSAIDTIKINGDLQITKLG
UniProt Q15102: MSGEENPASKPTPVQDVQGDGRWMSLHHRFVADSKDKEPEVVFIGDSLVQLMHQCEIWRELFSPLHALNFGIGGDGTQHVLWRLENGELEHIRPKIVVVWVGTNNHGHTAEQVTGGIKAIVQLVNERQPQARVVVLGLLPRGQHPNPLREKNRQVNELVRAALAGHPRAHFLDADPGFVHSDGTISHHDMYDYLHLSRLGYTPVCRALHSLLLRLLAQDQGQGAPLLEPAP
UniProt Q15437: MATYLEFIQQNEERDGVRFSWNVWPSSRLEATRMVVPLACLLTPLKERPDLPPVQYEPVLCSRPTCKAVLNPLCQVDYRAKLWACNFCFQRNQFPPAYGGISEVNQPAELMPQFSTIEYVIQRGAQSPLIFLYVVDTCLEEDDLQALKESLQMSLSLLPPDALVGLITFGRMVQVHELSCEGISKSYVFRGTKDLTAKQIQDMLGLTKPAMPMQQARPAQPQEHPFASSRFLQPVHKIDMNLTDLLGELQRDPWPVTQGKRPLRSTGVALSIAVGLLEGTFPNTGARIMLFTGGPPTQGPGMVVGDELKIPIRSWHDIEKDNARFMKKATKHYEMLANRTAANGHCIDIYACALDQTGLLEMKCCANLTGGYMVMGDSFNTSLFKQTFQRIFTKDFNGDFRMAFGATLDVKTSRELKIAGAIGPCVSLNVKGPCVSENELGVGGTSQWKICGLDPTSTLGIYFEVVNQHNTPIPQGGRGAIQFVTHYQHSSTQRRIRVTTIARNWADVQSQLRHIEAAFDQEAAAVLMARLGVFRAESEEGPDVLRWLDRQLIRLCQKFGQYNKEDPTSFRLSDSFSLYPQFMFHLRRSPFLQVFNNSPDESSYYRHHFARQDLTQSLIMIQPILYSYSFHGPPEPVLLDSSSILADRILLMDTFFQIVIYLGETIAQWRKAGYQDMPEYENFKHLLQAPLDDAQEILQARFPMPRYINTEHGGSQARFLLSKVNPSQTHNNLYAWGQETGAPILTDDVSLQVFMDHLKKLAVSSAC
UniProt Q1ED39: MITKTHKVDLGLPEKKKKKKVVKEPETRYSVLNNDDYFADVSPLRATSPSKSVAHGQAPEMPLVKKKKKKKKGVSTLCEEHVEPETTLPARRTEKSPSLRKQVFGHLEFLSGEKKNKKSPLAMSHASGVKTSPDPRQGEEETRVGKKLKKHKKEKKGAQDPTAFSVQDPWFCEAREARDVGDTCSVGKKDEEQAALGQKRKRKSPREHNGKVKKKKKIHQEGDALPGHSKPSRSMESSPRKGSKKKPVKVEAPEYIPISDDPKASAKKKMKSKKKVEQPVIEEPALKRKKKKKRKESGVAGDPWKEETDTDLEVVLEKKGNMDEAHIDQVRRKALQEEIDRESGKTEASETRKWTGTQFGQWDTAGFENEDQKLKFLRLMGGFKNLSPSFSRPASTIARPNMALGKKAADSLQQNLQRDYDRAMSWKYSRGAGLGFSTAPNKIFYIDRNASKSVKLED
UniProt Q15120, whole entry, looked up: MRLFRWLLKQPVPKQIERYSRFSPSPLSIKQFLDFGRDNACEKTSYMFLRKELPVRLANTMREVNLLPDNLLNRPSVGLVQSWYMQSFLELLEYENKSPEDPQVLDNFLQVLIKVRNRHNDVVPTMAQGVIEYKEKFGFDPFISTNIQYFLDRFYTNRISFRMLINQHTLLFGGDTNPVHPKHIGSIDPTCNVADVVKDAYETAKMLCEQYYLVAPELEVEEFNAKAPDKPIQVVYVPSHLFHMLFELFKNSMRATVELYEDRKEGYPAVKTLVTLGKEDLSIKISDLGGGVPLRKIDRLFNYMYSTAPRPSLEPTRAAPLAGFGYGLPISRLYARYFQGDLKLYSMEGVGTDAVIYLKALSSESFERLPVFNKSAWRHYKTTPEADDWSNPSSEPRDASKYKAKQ
UniProt Q4G0F5, whole entry: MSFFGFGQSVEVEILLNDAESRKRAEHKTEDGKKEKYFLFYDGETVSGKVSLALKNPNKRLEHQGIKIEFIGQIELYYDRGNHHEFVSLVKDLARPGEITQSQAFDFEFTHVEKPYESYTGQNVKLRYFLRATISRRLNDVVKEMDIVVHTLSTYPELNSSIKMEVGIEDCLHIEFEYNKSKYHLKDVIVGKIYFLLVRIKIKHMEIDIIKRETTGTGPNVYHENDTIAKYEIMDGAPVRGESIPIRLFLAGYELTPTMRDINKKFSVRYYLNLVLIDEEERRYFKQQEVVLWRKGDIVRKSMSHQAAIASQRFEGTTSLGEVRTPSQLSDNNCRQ
UniProt Q460N5, whole entry: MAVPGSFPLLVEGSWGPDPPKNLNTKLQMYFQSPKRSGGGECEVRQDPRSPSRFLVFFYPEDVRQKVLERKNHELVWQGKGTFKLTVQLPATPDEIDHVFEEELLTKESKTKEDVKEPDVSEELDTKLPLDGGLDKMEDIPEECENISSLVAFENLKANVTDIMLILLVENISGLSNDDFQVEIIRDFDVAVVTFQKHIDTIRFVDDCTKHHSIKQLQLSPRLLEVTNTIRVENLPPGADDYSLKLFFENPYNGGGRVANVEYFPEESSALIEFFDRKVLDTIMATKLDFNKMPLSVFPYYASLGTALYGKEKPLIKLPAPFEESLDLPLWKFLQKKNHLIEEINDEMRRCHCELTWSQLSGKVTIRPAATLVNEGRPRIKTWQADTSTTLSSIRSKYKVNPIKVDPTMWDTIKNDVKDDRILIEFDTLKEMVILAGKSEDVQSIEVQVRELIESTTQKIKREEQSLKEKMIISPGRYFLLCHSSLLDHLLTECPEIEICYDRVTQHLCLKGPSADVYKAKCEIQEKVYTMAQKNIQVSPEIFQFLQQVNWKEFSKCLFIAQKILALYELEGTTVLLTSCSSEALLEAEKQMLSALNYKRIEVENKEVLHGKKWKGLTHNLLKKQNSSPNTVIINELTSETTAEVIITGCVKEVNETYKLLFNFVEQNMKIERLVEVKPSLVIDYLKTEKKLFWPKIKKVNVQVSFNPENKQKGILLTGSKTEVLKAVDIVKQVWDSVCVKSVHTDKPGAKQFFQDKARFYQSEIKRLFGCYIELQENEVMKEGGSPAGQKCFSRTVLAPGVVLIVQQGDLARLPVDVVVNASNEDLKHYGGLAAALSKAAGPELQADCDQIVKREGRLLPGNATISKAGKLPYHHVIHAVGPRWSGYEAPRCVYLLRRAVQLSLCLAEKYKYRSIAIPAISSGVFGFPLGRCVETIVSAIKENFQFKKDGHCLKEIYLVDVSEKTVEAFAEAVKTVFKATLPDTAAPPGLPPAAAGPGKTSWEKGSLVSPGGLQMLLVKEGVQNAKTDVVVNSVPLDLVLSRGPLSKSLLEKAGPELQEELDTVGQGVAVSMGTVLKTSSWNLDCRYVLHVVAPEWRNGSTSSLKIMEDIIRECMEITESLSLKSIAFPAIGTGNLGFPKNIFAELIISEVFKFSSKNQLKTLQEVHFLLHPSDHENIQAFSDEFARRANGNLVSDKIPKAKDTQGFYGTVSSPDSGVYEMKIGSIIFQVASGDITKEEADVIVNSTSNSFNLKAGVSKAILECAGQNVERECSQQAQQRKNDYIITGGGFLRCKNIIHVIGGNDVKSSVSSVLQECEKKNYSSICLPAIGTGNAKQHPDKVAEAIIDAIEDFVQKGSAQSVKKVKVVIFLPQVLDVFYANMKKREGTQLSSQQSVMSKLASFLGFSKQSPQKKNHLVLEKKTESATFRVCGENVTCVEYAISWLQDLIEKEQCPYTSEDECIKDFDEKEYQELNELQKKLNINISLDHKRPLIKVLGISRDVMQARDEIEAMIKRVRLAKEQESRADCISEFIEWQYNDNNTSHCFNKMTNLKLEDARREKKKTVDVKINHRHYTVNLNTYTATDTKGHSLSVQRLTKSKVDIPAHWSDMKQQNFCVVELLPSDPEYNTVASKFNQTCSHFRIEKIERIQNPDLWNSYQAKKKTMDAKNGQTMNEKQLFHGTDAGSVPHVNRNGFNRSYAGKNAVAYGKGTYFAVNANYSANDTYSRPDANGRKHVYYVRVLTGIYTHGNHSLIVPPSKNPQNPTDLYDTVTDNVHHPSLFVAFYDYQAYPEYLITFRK
UniProt Q15014, whole entry: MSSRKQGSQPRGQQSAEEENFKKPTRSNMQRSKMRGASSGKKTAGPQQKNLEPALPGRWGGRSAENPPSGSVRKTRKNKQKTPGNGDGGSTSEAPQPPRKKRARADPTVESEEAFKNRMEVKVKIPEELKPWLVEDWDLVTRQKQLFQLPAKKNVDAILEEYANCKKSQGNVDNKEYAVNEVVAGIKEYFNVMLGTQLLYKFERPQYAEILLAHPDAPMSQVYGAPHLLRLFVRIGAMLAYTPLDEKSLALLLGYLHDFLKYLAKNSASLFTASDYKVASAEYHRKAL
UniProt Q15833: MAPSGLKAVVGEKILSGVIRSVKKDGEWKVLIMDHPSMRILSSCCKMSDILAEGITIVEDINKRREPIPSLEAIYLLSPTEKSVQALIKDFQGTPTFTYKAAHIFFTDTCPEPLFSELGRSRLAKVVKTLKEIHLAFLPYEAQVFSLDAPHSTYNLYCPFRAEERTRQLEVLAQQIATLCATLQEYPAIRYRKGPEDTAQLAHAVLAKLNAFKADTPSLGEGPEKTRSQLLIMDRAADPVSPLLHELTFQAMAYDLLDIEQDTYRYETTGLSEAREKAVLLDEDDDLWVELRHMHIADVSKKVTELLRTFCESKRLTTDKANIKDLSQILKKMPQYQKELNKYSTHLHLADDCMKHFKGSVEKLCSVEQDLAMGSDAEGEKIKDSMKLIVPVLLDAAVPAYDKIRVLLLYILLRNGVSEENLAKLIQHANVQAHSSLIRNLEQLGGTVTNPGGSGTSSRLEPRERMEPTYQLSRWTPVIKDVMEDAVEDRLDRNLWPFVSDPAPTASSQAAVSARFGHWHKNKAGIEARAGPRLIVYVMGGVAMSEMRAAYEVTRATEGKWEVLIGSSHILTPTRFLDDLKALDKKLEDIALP
UniProt Q15714: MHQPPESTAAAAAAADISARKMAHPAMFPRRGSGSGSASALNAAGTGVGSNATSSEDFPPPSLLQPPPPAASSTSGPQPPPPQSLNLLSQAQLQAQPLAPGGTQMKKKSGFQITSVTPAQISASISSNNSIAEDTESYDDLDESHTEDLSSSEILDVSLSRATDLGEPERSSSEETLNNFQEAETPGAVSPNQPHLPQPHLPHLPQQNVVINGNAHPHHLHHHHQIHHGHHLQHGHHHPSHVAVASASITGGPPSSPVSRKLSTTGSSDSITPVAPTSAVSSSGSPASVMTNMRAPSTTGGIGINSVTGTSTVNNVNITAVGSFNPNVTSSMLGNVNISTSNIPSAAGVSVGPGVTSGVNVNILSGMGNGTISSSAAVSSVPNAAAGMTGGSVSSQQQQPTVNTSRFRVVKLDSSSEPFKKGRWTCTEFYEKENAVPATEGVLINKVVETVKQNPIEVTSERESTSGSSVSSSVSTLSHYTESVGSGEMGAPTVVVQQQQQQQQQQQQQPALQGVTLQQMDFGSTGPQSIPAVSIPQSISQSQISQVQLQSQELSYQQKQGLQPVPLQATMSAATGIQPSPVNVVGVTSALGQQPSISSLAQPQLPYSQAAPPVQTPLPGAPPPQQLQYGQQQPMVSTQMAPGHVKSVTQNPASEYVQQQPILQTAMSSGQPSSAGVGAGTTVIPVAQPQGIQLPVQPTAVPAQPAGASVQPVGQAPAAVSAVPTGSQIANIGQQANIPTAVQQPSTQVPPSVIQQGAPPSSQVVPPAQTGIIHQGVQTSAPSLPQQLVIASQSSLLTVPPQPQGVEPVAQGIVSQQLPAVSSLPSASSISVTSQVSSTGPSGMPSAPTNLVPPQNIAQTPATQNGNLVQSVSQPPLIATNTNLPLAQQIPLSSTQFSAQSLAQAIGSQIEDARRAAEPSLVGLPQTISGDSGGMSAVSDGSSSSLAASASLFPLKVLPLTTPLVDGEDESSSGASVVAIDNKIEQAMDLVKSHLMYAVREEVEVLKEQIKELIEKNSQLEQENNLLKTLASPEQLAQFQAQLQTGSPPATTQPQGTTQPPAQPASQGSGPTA
UniProt Q3ZAQ7: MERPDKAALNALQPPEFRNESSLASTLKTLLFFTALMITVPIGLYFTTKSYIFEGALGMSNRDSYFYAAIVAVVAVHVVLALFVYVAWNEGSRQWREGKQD
UniProt Q15691: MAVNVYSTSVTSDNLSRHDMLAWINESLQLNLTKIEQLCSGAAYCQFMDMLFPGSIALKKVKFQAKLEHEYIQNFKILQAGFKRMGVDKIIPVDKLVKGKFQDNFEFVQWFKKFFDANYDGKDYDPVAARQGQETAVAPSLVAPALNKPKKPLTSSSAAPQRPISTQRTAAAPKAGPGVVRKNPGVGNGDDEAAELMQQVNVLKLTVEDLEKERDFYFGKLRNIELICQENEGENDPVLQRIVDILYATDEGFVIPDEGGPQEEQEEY

± gives the standard deviation of the averaged measurements. This is a selection; strong and weak results do not stand in their true shares.

For LGALSL (UniProt Q3ZCW2), the NP40-soluble protein abundance (concentration: 1mM) is 1.02 ± 0.1; the NP40-soluble protein abundance (concentration: 2mM) stood at 1.01 ± 0.12; the NP40-soluble protein abundance (concentration: 4mM) is 1.02 ± 0.076; the NP40-soluble protein abundance (concentration: 6mM) is 1.01 ± 0.046; the NP40-soluble protein abundance (concentration: 8mM) was 0.99 ± 0.069; the NP40-soluble protein abundance (concentration: 10mM) was 1.02 ± 0.062.
PAFAH1B3 (UniProt Q15102): the NP40-soluble protein abundance (concentration: 1mM) turned out to be 0.958 ± 0.026; the NP40-soluble protein abundance (concentration: 2mM) came out at 0.96 ± 0.021; the NP40-soluble protein abundance (concentration: 4mM) worked out at 0.931 ± 0.02; the NP40-soluble protein abundance (concentration: 6mM) amounted to 0.897 ± 0.066; the NP40-soluble protein abundance (concentration: 8mM) worked out at 0.9177 ± 0.0031; the NP40-soluble protein abundance (concentration: 10mM) came out at 0.898 ± 0.051.
As for SEC23B (UniProt Q15437), the NP40-soluble protein abundance is, setting by setting: (concentration: 1mM) 1.04 ± 0.14; (concentration: 2mM) 1.02 ± 0.086; (concentration: 4mM) 1.05 ± 0.098; (concentration: 6mM) 0.928 ± 0.15; (concentration: 8mM) 1.05 ± 0.035; (concentration: 10mM) 1.04 ± 0.054.
UniProt Q1ED39: the NP40-soluble protein abundance runs as follows: (concentration: 1mM) 1.02 ± 0.076; (concentration: 2mM) 1.04 ± 0.072; (concentration: 4mM) 1.12 ± 0.032; (concentration: 6mM) 1.21 ± 0.051; (concentration: 8mM) 1.238 ± 0.011; (concentration: 10mM) 1.33 ± 0.046.
In the case of UniProt Q15120 and related entries, the NP40-soluble protein abundance (concentration: 1mM) amounted to 1.4 ± 0.15; the NP40-soluble protein abundance (concentration: 2mM) worked out at 1.39 ± 0.2; the NP40-soluble protein abundance (concentration: 4mM) worked out at 1.45 ± 0.19; the NP40-soluble protein abundance (concentration: 6mM) was determined as 1.38 ± 0.16; the NP40-soluble protein abundance (concentration: 8mM) turned out to be 1.53 ± 0.23; the NP40-soluble protein abundance (concentration: 10mM) came to 1.47 ± 0.23.
As for VPS26B (UniProt Q4G0F5), the NP40-soluble protein abundance by setting is: (concentration: 1mM) 1.1 ± 0.27; (concentration: 2mM) 1.06 ± 0.17; (concentration: 4mM) 1.04 ± 0.16; (concentration: 6mM) 0.919 ± 0.21; (concentration: 8mM) 1.05 ± 0.13; (concentration: 10mM) 1.03 ± 0.11.
As to UniProt Q460N5 and related entries, the NP40-soluble protein abundance is, setting by setting: (concentration: 1mM) 1.01 ± 0.046; (concentration: 2mM) 1.02 ± 0.035; (concentration: 4mM) 1.01 ± 0.043; (concentration: 6mM) 0.993 ± 0.054; (concentration: 8mM) 1.02 ± 0.049; (concentration: 10mM) 1.03 ± 0.028.
For the target MORF4L2 (UniProt Q15014), the NP40-soluble protein abundance is 1 ± 0.1 (concentration: 1mM); 1.02 ± 0.082 (concentration: 2mM); 1.06 ± 0.095 (concentration: 4mM); 1.05 ± 0.071 (concentration: 6mM); 1.05 ± 0.034 (concentration: 8mM); 1.03 ± 0.078 (concentration: 10mM).
Regarding UniProt Q14197, the NP40-soluble protein abundance is, setting by setting: (concentration: 1mM) 1.01 ± 0.048; (concentration: 2mM) 0.923 ± 0.1; (concentration: 4mM) 0.906 ± 0.049; (concentration: 6mM) 0.939 ± 0.22; (concentration: 8mM) 0.928 ± 0.11; (concentration: 10mM) 0.89 ± 0.12.
On to STXBP2 (UniProt Q15833), for which the NP40-soluble protein abundance is 0.957 ± 0.033 (concentration: 1mM); 0.962 ± 0.015 (concentration: 2mM); 0.935 ± 0.046 (concentration: 4mM); 0.951 ± 0.059 (concentration: 6mM); 0.961 ± 0.035 (concentration: 8mM); 0.945 ± 0.021 (concentration: 10mM).
As to UniProt Q14CX7, the NP40-soluble protein abundance runs as follows: (concentration: 1mM) 1.04 ± 0.064; (concentration: 2mM) 1.04 ± 0.06; (concentration: 4mM) 1.04 ± 0.063; (concentration: 6mM) 1.01 ± 0.086; (concentration: 8mM) 1.03 ± 0.06; (concentration: 10mM) 1.02 ± 0.042.
As to ACSF3 (UniProt Q4G176), the NP40-soluble protein abundance runs as follows: (concentration: 1mM) 1.05 ± 0.15; (concentration: 2mM) 1.05 ± 0.14; (concentration: 4mM) 1 ± 0.088; (concentration: 6mM) 0.923 ± 0.2; (concentration: 8mM) 1.04 ± 0.062; (concentration: 10mM) 1.02 ± 0.088.
Consider TSC22D1 (UniProt Q15714), for which the NP40-soluble protein abundance is 1.02 ± 0.26 (concentration: 1mM); 0.971 ± 0.21 (concentration: 2mM); 1.12 ± 0.39 (concentration: 4mM); 1.05 ± 0.31 (concentration: 6mM); 1.04 ± 0.3 (concentration: 8mM); 1.1 ± 0.31 (concentration: 10mM).
On to UniProt Q3ZAQ7 and related entries, for which the NP40-soluble protein abundance came to 0.875 ± 0.14 (concentration: 1mM); 0.9547 ± 0.0026 (concentration: 2mM); 0.977 ± 0.015 (concentration: 4mM); 0.867 ± 0.12 (concentration: 6mM); 0.905 ± 0.027 (concentration: 8mM); 0.899 ± 0.059 (concentration: 10mM).
Regarding MAPRE1 (UniProt Q15691), the NP40-soluble protein abundance amounted to 0.913 ± 0.077 (concentration: 1mM); 0.914 ± 0.031 (concentration: 2mM); 0.879 ± 0.033 (concentration: 4mM); 0.934 ± 0.053 (concentration: 6mM); 0.881 ± 0.032 (concentration: 8mM); 0.849 ± 0.041 (concentration: 10mM).

(Values after the supplement of paper PMC6411743.)
